# Hit rate of the full screen: of about 350,000 compounds, about 220 (0.063%) were called active. The shares of active, inactive and inconclusive entries below differ from those in the screen. The call rests on the fitted dose curve; in most records, active means well fitted activation curve with a large enough effect; inconclusive means small, poorly fitted or top-dose-only effect; inactive means no such curve, though single readings can be large or run the other way. Potencies of inconclusive entries are doubtful fits and often do not repeat.
# Test: qHTS for Activators of Integrin-Mediated Alleviation for Muscular Dystrophy; further: nearly all actives have a fitted effect of over 60% in size;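 on activation: 100% = response of the positive control SU9516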
# Details: alpha7betagal myoblasts, beta-gal FDG fluorescence, 48 h; activation: at 38.3 µM (top of the series)
# Summary of the method: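 Alpha7betagal+/- myoblasts (passage 13) were plated 16-24 hr, then exposed to compounds (1:260 dilution of DMSO stock) for 48 hours at 37C. After MPER lysis, β-galactosidase reporter activity was read as FDG fluorescence (ex 480/em 540) after 30 minutes.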
# Potency means the concentration at half of the fitted maximal effect.
SMILES,Potency,activation
O=C(Cc1ccc([N+](=O)[O-])cc1)N1CCN(Cc2ccc3c(c2)OCO3)CC1,inactive,
O=c1cc(CN2CC=C(c3ccccc3)CC2)c2c(ccc3ccccc32)o1,"inconclusive: 3.16 µM [activator, full curve, poor fit]",
N#CC(C#N)=NNc1ccc(-n2ccc(C(F)(F)F)n2)cc1,"inconclusive: 1.26 µM [activator, partial curve, poor fit]",
N#CC1=C(N)Oc2n[nH]c(-c3cccs3)c2C1c1ccccc1C(=O)O (centres undefined),"inconclusive: 2.82 µM [activator, single point]",
C=CCn1c(O)c(C(CC)=NCCN2CCN(C(=S)NC)CC2)c(=O)[nH]c1=O,"inconclusive: 10 µM [activator, single point]",
CC(C)N1CCN(Cc2ccccc2C(F)(F)F)CC1CCO (centres undefined),"inconclusive: 2 µM [activator, partial curve, poor fit]",
O=C(CCN1CCN(c2ccccc2)CC1)c1ccc(Br)cc1,"inconclusive: 5.01 µM [activator, single point]",
O=C1CN(O)C(c2ccccc2Cl)=c2cc(Br)ccc2=N1,"inconclusive: 5.01 µM [activator, single point]",
CC(=O)Nc1cc(C(=O)N2CCC3(CC2)OCCO3)ccc1Sc1ccc(F)cc1,"inconclusive: 5.01 µM [activator, single point]",
Clc1cccc(C2NCc3ccccc3-n3cccc32)c1 (centres undefined),"inconclusive: 3.55 µM [activator, single point]",
Cc1nn(Cc2ccc(Cl)cc2Cl)c(Cl)c1C(=O)O,"inconclusive: 28.2 µM [activator, single point]",
c1nc2nc3c(c(N4CCNCC4)n2n1)CCCC3,"inconclusive: 8.91 µM [activator, single point]",
COc1ccc2[nH]c(C)c(CCNCc3cccnc3)c2c1,"inconclusive: 5.01 µM [activator, single point]",
COc1cccc(-n2c(CN3CCOCC3)nc3ccc([N+](=O)[O-])cc3c2=O)c1,"inconclusive: 0.631 µM [activator, single point]",
O=C(c1ccccc1)c1ccc(N=Nc2c(O)[nH]c(=O)[nH]c2=O)cc1,"inconclusive: 1 µM [activator, partial curve, poor fit]",
COP(=O)(NC(=O)C(Cl)(Cl)Cl)OC,"inconclusive: 10 µM [activator, single point]",
COc1ccc(N2C(=O)/C(=C/c3cc(C)n(-c4ccc(C)cn4)c3C)C(=O)NC2=S)c(OC)c1,"inconclusive: 3.16 µM [activator, single point]",
CCN(CC)CCNC(=O)c1c(O)c2ccccc2n(Cc2ccccc2)c1=O,"inconclusive: 3.55 µM [activator, single point]",
O=c1[nH]c(=S)n(-c2cccc(Cl)c2)c(O)c1C=NCCN1CCNCC1,"inconclusive: 11.2 µM [activator, partial curve, poor fit]",
O=C(N/N=C/c1c(O)n(C2CC2)c(=S)[nH]c1=O)c1ccccc1,"inconclusive: 3.55 µM [activator, partial curve, poor fit]",
CCOc1c(Cl)cc(CNC(C)C(O)c2ccccc2)cc1OC (centres undefined),"inconclusive: 12.6 µM [activator, single point]",
CCC1CN(C)CCC1(OC(C)=O)c1ccccc1 (centres undefined),"inconclusive: 12.6 µM [activator, partial curve, poor fit]",
CCOP(=S)(OCC)c1ccc(N(C)C)cc1,"inconclusive: 5.01 µM [activator, single point]",

SMILES,Potency,activation
CCN(CC)CCN1Cc2ccccc2C1=N,inactive,
NC(=S)c1cn(C2OC(CO)C(O)C2O)c2ncnc(N)c12 (centres undefined),,inconclusive: -69.3% [activator]
COC(=O)C12CCc3c(ccc4cc(OC)ccc34)C1=CC(=O)C2 (centres undefined),inactive,
CC(NCc1cccc(Cl)c1Cl)C(O)c1ccccc1 (centres undefined),"inconclusive: 0.501 µM [activator, full curve, poor fit]",
O=c1[nH]c(=O)n(CCc2ccccc2)c(O)c1C=NCc1ccc2c(c1)OCO2,"inconclusive: 28.2 µM [activator, single point]",
CC/C(=N\NC(=O)c1ccccc1)c1c(O)n(Cc2ccccc2)c(=O)[nH]c1=O,"inconclusive: 5.01 µM [activator, single point]",
O=C(C1CC(c2ccc(F)cc2)=NO1)N1CCC2(CC1)OCCO2 (centres undefined),inactive,
CCC(C)OC(=O)c1c(N)n(Cc2cccs2)c2nc3ccccc3nc12 (centres undefined),inactive,
OC1C2CN3CN(C2)CC1(c1ccccc1)C3 (centres undefined),"inconclusive: 20 µM [activator, single point]",
c1ccc(CC2CCCCN2)cc1 (centres undefined),"inconclusive: 22.4 µM [activator, single point]",
C[C@@H]1CN([C@@H](C)CO)C(=O)CCCn2nncc2CO[C@@H]1CN(C)C(=O)Oc1cccc2ccccc12,inactive,
O=C(Nc1ccc2ccccc2c1)c1nn(C23CC4CC(CC(C4)C2)C3)cc1Br,"inconclusive: 3.55 µM [activator, single point]",
O=C(COc1ccc(Cl)cc1)NCCc1cnc[nH]1,"inconclusive: 0.447 µM [activator, partial curve, poor fit]",
O=C(c1ccc(Cl)cc1)C12CN3CN(CN(C3)C1)C2,"inconclusive: 0.891 µM [activator, partial curve, poor fit]",
O=C1CN=C(c2ccccc2)c2cc(Br)ccc2N1,"inconclusive: 3.98 µM [activator, single point]",
Cc1cc(/C=C2\C(=O)NC(=O)N(c3cccc(F)c3)C2=O)c(C)n1-c1cc(C(=O)O)cc(C(=O)O)c1,"inconclusive: 31.6 µM [activator, single point]",
CC1=CC2OC3CC4OC(=O)C=CC=CC(C(C)O)OCC(O)C(C)CC(=O)OCC2(CC1O)C4(C)C31CO1 (centres undefined),,inconclusive: -57.4% [activator]
COC(=O)CCc1nc2c(C#N)c(-c3ccc(Cl)cc3)ccn2n1,"inconclusive: 1.12 µM [activator, full curve, poor fit]",
O=C(NCCCn1ccnc1)C(Cl)(Cl)Cl,"inconclusive: 10 µM [activator, single point]",
Cn1cc(C(=O)N2CCOCC2)c2ccccc21,"inconclusive: 17.8 µM [activator, single point]",
COc1ccc(CCNCc2ccccc2)cc1,"inconclusive: 3.16 µM [activator, full curve, poor fit]",
CCOC(=O)CC1c2ccccc2-n2nncc2CN1CC1CCCCC1 (centres undefined),inactive,
Cc1nn(Cc2ccccc2)c(Cl)c1C(=O)NC1CCCc2ccccc21 (centres undefined),inactive,

SMILES,Potency,activation
CCOC(=O)N(CC)c1ccc(C(O)(C(=O)OC)C(F)(F)F)cc1 (centres undefined),"inconclusive: 5.62 µM [activator, partial curve, poor fit]",
CCC(=NCCN1CCOCC1)c1c(O)n(C2CCCCC2)c(=O)[nH]c1=O,inactive,
C=CCN1C(=O)/C(=C\c2ccc(N3CCOCC3)o2)C(=O)NC1=S,inactive,
CCCCN=C[C@]12CCC(O)CC1(O)CCC1[C@@H]2CC[C@]2(C)[C@H](C3C=CC(=O)O3)CCC12O (some centres undefined),"inconclusive: 2 µM [activator, full curve, poor fit]",
Nc1ccc(CCN2CCCC2)cc1,inactive,
Cc1cc(N(CCCl)CCCl)ccc1/C=N/N=C(\N)c1cnccn1,inactive,
CC1(C)C2CC=C(CN3CCOCC3)C1C2 (centres undefined),inactive,
CCOc1cc(/C=C(\C#N)C(=O)NCC2CCCO2)ccc1OCC(N)=O (centres undefined),"inconclusive: 7.08 µM [activator, partial curve, poor fit]",
CN1C(=O)C[N+]([O-])=C(c2ccccc2)c2cc(Cl)ccc21,inactive,
Fc1ccc(C(OCCN2CCCC2)c2ccc(F)cc2)cc1,"inconclusive: 2.51 µM [activator, partial curve, poor fit]",
CCCCCCCCCCCCCCCC[n+]1ccccc1,inactive,
Cc1c(P(=S)(c2ccccc2)c2ccccc2)[n+]2ccccc2n1C,inactive,
CC1CCCCC1n1c(-c2cccnc2)n[nH]c1=S (centres undefined),"inconclusive: 10 µM [activator, single point]",
COC(=O)Cc1cc(=O)n(-c2ccccc2)[nH]1,"inconclusive: 3.98 µM [activator, partial curve, poor fit]",
COc1cc(OC)c(OC)cc1/C=C1/C(=O)NC(=O)N(Cc2ccccc2)C1=O,"inconclusive: 11.2 µM [activator, partial curve, poor fit]",
CCCCCn1c(=O)c(C(=O)NCc2ccccc2Cl)c(O)c2ccccc21,"inconclusive: 5.01 µM [activator, single point]",
O=C1Nc2ccc(Br)cc2C(c2ccc(Cl)cc2)=NC1O (centres undefined),"inconclusive: 28.2 µM [activator, single point]",
COc1ccc(C)cc1NC1=NC(C)(C)CS1,"inconclusive: 5.01 µM [activator, single point]",
Nc1c2c(nc3sc4c(c13)CCCC4)CCCCC2,inactive,
O=C1NC2NC(=O)N([N+](=O)[O-])C2N1 (centres undefined),"inconclusive: 28.2 µM [activator, single point]",
CCC(=NCC1CCCO1)c1c(O)n(-c2ccc(OC)cc2)c(=O)[nH]c1=O (centres undefined),"inconclusive: 2.82 µM [activator, single point]",
COc1cc2nc(CN3CC=C(c4ccccc4)CC3)[nH]c(=O)c2cc1OC,inactive,
O=C(c1ccc(C(F)(F)F)cc1)C1CCCN(Cc2ccc(CO)o2)C1 (centres undefined),"inconclusive: 0.447 µM [activator, full curve, poor fit]",

# An excerpt from above in order of formula weight, smallest number first:
SMILES,Potency,activation
O=C(N/N=C/c1c(O)n(C2CC2)c(=S)[nH]c1=O)c1ccccc1,"inconclusive: 3.55 µM [activator, partial curve, poor fit]",
CCOc1cc(/C=C(\C#N)C(=O)NCC2CCCO2)ccc1OCC(N)=O (centres undefined),"inconclusive: 7.08 µM [activator, partial curve, poor fit]",
CC(=O)Nc1cc(C(=O)N2CCC3(CC2)OCCO3)ccc1Sc1ccc(F)cc1,"inconclusive: 5.01 µM [activator, single point]",

# — PubChem BioAssay AID624291 (National Center for Advancing Translational Sciences (NCATS), 2012)
